# Primary screen of a compound library

By UniProt entry, the sequences of proteins in these tests, tags left out. Residues count along the entry.
UniProt P9WFT3, whole entry: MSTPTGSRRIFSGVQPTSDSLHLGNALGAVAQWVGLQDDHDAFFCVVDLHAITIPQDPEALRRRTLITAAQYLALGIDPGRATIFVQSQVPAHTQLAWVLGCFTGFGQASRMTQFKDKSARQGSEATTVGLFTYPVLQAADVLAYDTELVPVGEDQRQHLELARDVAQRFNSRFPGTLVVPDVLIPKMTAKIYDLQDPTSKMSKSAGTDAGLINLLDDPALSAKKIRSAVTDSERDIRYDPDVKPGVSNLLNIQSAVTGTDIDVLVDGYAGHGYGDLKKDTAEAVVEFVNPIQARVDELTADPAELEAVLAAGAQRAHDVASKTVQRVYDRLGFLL
UniProt P9WPC5, whole entry: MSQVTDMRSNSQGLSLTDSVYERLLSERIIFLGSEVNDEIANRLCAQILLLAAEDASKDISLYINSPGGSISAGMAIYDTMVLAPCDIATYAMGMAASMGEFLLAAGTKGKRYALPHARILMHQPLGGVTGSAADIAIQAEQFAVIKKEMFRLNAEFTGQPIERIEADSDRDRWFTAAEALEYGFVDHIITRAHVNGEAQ
UniProt P9WPC3, whole entry partner: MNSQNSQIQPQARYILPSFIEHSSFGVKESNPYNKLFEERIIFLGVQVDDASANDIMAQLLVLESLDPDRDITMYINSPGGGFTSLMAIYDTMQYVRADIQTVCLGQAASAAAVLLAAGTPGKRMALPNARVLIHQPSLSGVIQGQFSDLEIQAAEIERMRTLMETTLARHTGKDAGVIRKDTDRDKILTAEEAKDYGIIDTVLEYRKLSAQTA
UniProt Q8IDJ8, 1-583: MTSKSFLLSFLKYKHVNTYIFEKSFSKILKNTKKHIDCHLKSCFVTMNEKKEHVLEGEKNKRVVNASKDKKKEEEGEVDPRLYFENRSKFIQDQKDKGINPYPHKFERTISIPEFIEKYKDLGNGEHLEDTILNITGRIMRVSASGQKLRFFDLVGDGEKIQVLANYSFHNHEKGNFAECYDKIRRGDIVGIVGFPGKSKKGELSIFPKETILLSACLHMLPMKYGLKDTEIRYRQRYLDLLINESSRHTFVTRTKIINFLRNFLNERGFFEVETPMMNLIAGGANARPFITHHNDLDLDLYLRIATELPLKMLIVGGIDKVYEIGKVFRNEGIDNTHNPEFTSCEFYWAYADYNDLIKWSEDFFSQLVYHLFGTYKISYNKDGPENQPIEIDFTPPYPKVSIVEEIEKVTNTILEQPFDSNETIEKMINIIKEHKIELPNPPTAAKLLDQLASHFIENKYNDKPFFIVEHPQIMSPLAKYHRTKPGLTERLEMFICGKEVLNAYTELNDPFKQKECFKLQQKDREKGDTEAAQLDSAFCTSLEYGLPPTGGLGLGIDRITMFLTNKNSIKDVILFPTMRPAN
UniProt P9WNZ1, whole entry: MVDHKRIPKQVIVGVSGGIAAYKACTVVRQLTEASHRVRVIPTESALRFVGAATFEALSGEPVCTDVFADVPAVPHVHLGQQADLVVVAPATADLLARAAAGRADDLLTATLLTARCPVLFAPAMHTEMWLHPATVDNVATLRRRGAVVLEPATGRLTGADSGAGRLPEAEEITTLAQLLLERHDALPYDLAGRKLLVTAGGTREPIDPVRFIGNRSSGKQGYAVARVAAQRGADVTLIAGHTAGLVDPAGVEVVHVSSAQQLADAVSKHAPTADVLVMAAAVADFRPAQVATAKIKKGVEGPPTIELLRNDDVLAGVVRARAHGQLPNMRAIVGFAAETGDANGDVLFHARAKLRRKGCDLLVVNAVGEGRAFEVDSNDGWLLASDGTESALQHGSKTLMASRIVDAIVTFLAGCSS

MtTrpRS: 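Tryptophan-tRNA ligase, Mycobacterium tuberculosis (UniProt P9WFT3). Enzyme assay of tryptophanyl-tRNA synthetase; the read-out is not stated. Compounds at 10 µM. Higher most likely means stronger inhibition; the record gives no direction and few retests gave an IC50. Of about 65,000 compounds tested this way, about 64 (0.098%) reached 50% or more in at least one test.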
ClpP1P2: 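ClpP1P2, Mycobacterium tuberculosis (UniProt P9WPC5 and UniProt P9WPC3). Protease assay of ClpP1P2, read by the AMC dye that it sets free. Compounds at 50 µM. Higher reads as stronger inhibition, judged from the few compounds that gave an IC50. Most other retested compounds had strongly negative values. Of about 69,000 compounds tested this way, about 10 (0.015%) reached 50% or more in at least one test.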
Leishmania in macrophages: 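Cell assay of Leishmania donovani living inside macrophages; the read-out is not stated. Compounds at 30 µM. Direction is inferred from retests: higher values go with stronger inhibition. Size under these conditions: about 69,000 compounds, about 1,000 of them at 50% or above in at least one test.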
PfKRS1: 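Enzyme assay of the cytosolic lysyl-tRNA synthetase in 384-well plates, read by luminescence. Target: Lysine-tRNA ligase, Plasmodium falciparum 3D7 (UniProt Q8IDJ8). Compounds at 30 µM. Higher reads as stronger inhibition, judged from the few compounds that gave an IC50. Size under these conditions: about 69,000 compounds, about 49 of them at 50% or above in at least one test.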
CoaBC: 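Coenzyme A biosynthesis protein CoaBC, Mycobacterium tuberculosis (UniProt P9WNZ1). Enzyme assay of CoaBC with a phosphate dye (Biomol Green) read at 650 nm. Concentration: 30 µM. Direction is inferred from only a few compounds that gave an IC50; most scored high, so higher reads as stronger inhibition. Most strong results did not repeat in a second test. Size under these conditions: about 67,000 compounds, about 40 of them at 50% or above in at least one test.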

Values are the deposited “Percent Effect”, in %.
How 0% and 100% were set is not recorded. Most values in the screen are low, and negative values occur.
The compounds are a random part of those screened.
Two or more numbers in one place are separate tests of the same structure; such repeats can differ widely.
A dash means the value is not listed here; it may have been measured.

| # | structure | MtTrpRS | ClpP1P2 | Leishmania in macrophages | PfKRS1 | CoaBC |
|---|---|---|---|---|---|---|
| 1 | `CC(C)N1CCC(C(=O)N2CCCN(c3ccccc3)CC2)CC1` | 0.1566% | 8.154% | 8.422% | 2.468% | -0.9877% |
| 2 | `CC(C)CNC(=O)Cn1ccc2ccccc21` | -6.233% | 4.988% | 11.1% | 2.376% | -1.768% |
| 3 | `CN1N=C(C(=O)N2CCCC(CCc3cccc(F)c3)C2)CCC1=O` (configuration not stated) | 0.4515% | -17.77% | 35.29% | 3.635% | -2.195% |
| 4 | `Cc1cnc(CN(C)C2CCN(Cc3sc(C)nc3C)C2)o1` (configuration not stated) | -2.81% | -1.522% | 3.059% and -11.05% | -4.676% | 1.018% |
| 5 | `CC(C)S(=O)(=O)NCC(Cc1cccc(F)c1)N1CCNC1=O` (configuration not stated) | 4.379% | -7.203% | -1.798% and 17.33% | 2.85% | 3.053% |
| 6 | `O=C(O)C(F)(F)F.O=C(O)C(F)(F)F.[H][C@@]12C[C@@H](OCC)CN1CCN(Cc1ccc(C)o1)C2` | - | - | -67.53% | - | - |
| 7 | `O=c1cc(N2CCCC2)cnn1CCc1cccc(F)c1` | -0.7692% | 7.256% | -42.33% | 2.778% | 2.948% |
| 8 | `O=C(O)C(F)(F)F.[H][C@@]12COC[C@]1(COc1cccnc1)CN(C(=O)COC1CCCC1)C2` | - | - | 38.34% | - | - |
| 9 | `COCc1ncc(CN(CCN(C)C)Cc2ccc(C)s2)cn1` | 1.397% | -9.377% | 11.17% | 0.2597% | -2.213% |
| 10 | `CN(Cc1ccccc1F)C(=O)c1ccoc1` | -8.212% | -1.612% | -4.722% | 4.01% | 8.871% |
| 11 | `Cc1nc(C)n(CC2CN(Cc3nc4ccccc4s3)CCO2)n1` (configuration not stated) | -2.792% | -0.1871% | 35.72% | -0.6061% | 2.36% |
| 12 | `CN(C)CCOCC1CN(C(=O)c2ccnnc2)Cc2ccnn2C1.O=C(O)C(F)(F)F.O=C(O)C(F)(F)F` (configuration not stated) | - | - | 5.423% | - | - |
| 13 | `COCCN(C)C(=O)c1nc2c(s1)CCCN2C(=O)C1CC1` | -1.549% | -12.59% | 3.63% | 0.2986% | 7.625% |
| 14 | `COc1ccccc1OCCNC(=O)CN1CCc2cncnc2C1` | -1.237% | -10.05% | 8.64% | -0.1058% | -13.95% |
| 15 | `O=C(NCCC1=CCCCC1)Nc1cc(C(F)(F)F)c[nH]c1=O` | 3.29% | -18.76% | 30.54% | 2.191% | 7.347% |
| 16 | `Fc1ccc(Cc2cnc(C3CCCN3)cn2)cc1` (configuration not stated) | - | -9.916% | - | -0.184% | -2.906% |
| 17 | `Cc1noc(C)c1C(=O)NCc1ccc(N2CCOCC2)nc1` | 0.6555% | -1.986% | 22.82% | 0.9725% | 2.35% |
| 18 | `[H][C@@]12CS(=O)(=O)C[C@]1([H])N(C(=O)Cc1ccc(O)c(Cl)c1)CCN2CC1CC1` | - | - | -36.53% | - | - |
| 19 | `O=C1NCCN1C1CCN(Cc2ccccn2)CC1` | 0.0774% | -18.12% | 6.247% | 2.775% | 1.066% |
| 20 | `CCN(CC)CCSc1ncnc2[nH]ncc12` | -0.455% | -1.754% | 16.08% | 8.21% | -5.622% |
| 21 | `c1ccc2nc(CN3CCCC3c3noc(C4CC4)n3)ccc2c1` (configuration not stated) | 10.35% | -40.14% | -0.5856% | -3.682% | 1.37% |
| 22 | `Cc1nc(O)ccc1C(=O)NCc1ncoc1C` | -7.121% | -2.29% | 13.38% | 2.866% | -9.375% |
| 23 | `CCc1oc2ccc(NS(=O)(=O)CC)cc2c1C(=O)OC` | -1.583% | -8.293% | -15.21% | 6.348% | -1.01% |
| 24 | `CCN(CC)[C@H]1COC[C@@H]2CN(Cc3cnn(C)c3)C[C@@H]21` | -2.344% | 7.738% | - | -3.012% | 4.684% |
| 25 | `CC1=C(C(=O)NCCc2n[nH]c3c2CCCC3)C(C)NC(=O)N1` (configuration not stated) | 5.677% | 23.62% | -14.94% | -2.276% | -4.377% |
| 26 | `Cc1c[nH]nc1C1CCN(C(=O)C2CCC2)CC1` | 5.074% | -0.9352% | 11.76% | 2.532% | 4.196% |
| 27 | `Cn1nccc1-c1nc2c(cc1C(=O)O)CCN(C(=O)C1CC1)CC2` | -5.973% | -7.208% | - | -0.633% | -5.447% |
| 28 | `CCOCc1ncn2c1CN(C(=O)Nc1ccccc1CC)CC2` | 23.41% | 1.14% | -1.93% | -0.2218% | -3.03% |
| 29 | `O=C(Cc1ccc2c(c1)CCO2)N1CCCCC1Cn1cccn1` (configuration not stated) | 8.369% | -4.303% | 18.45% | 6.698% | -10.66% |
| 30 | `O=C(O)CCc1cc2n(n1)CCCN(C(=O)c1cc3ccccc3s1)C2` | 2.826% | -9.372% | -16.01% | 1.409% | 5.911% |
| 31 | `COc1cccc(CNc2cc(N3CCCC3CO)ncn2)n1` (configuration not stated) | -2.985% | -19.7% | 18.61% | 2.109% | 1.364% |
| 32 | `CN1Cc2ccccc2N(CC(O)C(F)(F)F)CCC1=O` (configuration not stated) | - | 1.505% | 3.485% | 5.023% | -0.2421% |
| 33 | `Cn1ccnc1CCC1CCCCN1Cc1cnc(N2CCCC2)nc1` (configuration not stated) | -2.094% | 5.883% | 33.97% | 6.323% | 0.6369% |
| 34 | `O=C(NCCc1noc(C2CCCO2)n1)c1cn2ccsc2n1` (configuration not stated) | 4.026% | -11.63% | -6.933% | 1.589% | 5.411% |
| 35 | `O=C(c1ccoc1)N1CCO[C@]2(CCC[C@@H]2COCc2cccnc2)C1` | 0.6509% | 3.015% | - | 9.113% | 0.9772% |
| 36 | `COc1ncccc1CN1C[C@H]2CCN(C(C)C)C[C@H]2C1` | - | -6.817% | - | 1.575% | 5.697% |
| 37 | `[H][C@@]12C[C@@H](OCc3ccccn3)CN1CCN(C(=O)c1cnccn1)C2` | - | - | 2.264% | - | - |
| 38 | `CC(=O)c1c(O)n(C)c2ccccc12` | 3.67% | -2.133% | 3.621% | -4.573% | 19.02% |
| 39 | `CCN(Cc1ccco1)C(C)c1nc(C)no1` (configuration not stated) | -6.498% | 14.62% | 19.11% | 1.24% | 1.025% |
| 40 | `Cc1noc([C@@H]2CC[C@@H]3[C@@H](CCN3S(=O)(=O)c3ccccc3)O2)n1` | 3.181% | -9.063% | - | 4.274% | -2.757% |
| 41 | `Cc1cc(C(=O)N[C@H](C)c2onc(C)c2C(=O)O)c(C)o1.Cl` | - | - | 5.94% | - | - |
| 42 | `Cc1cc(C)c2c(OCC(=O)NC(C)C)nn(C)c2n1` | -3.328% | -19.66% | 20.03% | -4.625% | 10.87% |
| 43 | `CC(C)N1CCC(NC(=O)NCc2cccnc2)C1` (configuration not stated) | 4.873% | -5.592% | -19.27% | 4.182% | 1.945% |
| 44 | `Cc1ccc(C(=O)N2CCOC3(CCCC3)C2)c(=O)[nH]1` | 6.298% | -12.91% | 4.345% | -1.046% | 3.713% |
| 45 | `O=C(NCCC1COc2ccccc2O1)c1ccc(-c2cn[nH]c2)nc1` (configuration not stated) | 3.06% | -9.129% | 26.34% | 5.116% | 9.307% |
| 46 | `CO[C@H]1CCN(S(=O)(=O)c2cn(C)cn2)[C@H]1Cc1ccccc1` | 1.58% | -19.37% | - | 10.01% | 1.29% |
| 47 | `CC(C)c1nnc2n1CC(CNCc1cccnc1)CC2` (configuration not stated) | -1.147% | -6.217% | 21.9% | 0.7033% | 1.952% |
| 48 | `O=C(c1ccc(-n2cncn2)cc1)N1CCN(c2cnccn2)CC1` | -1.947% | 4.038% | 10.09% | 7.173% | 6.329% |
| 49 | `O=S(=O)(C1CC1)N1CCC2(CCCN(Cc3ccccn3)C2)CC1` | - | -5.984% | 25.49% | 6.753% | 0% |
| 50 | `CC(C)CN1CCC2(CCCNC2)C1=O` (configuration not stated) | 1.017% | -0.6606% | - | 4.553% | 6.049% |
| 51 | `CCN1CC(C(=O)N2CCC(Oc3ccccc3C)CC2)CC1=O` (configuration not stated) | 3.207% | -7.54% | 12.25% | 3.396% | 5.806% |
| 52 | `CSc1ccc(C(=O)C2CCCN(C(=O)Cn3cnnn3)C2)cc1` (configuration not stated) | -4.721% | -7.916% | 21.75% | 0.0113% | -0.4348% |
| 53 | `CSCc1noc(CNC2CCCC(C)(C)C2)n1` (configuration not stated) | 1.449% | -8.571% | 10.38% | 3.654% | 11.47% |
| 54 | `CCN(Cc1ccc(O)c(C(=O)O)c1)CC1CCOCC1` | -4.149% | -9.471% | 1.918% | 1.257% | -8.732% |
| 55 | `CC(=O)Nc1c(C)cnn1Cc1cc(F)ccc1F` | -2.487% | -20.82% | -2.149% | 2.002% | -3.125% |
| 56 | `Cl.O=C(NCc1ccccc1F)C1=NOC2(CCNC2)C1` (configuration not stated) | - | - | 18.46% | - | - |
| 57 | `CCOC(C)c1nc(Cn2cccn2)cs1` (configuration not stated) | -0.4854% | -3.917% | 7.945% | 1.984% | 2.552% |
| 58 | `COc1cc(CNC(=O)COC2CCCC2)ccc1O` | -2.556% | -4.282% | -22.54% | 3.981% | 2.675% |
| 59 | `Cc1noc(C)c1-c1cccc(CC2CCN(C(=O)CN)C2)n1` (configuration not stated) | - | -5.717% | -26.82% and 13.1% | 5.214% | 3.632% |
| 60 | `c1cnn(Cc2nnc(C3CCN(C4CCOCC4)CC3)n2C2CC2)c1` | 1.599% | -21.35% | 12% | -0.178% | 10.27% |
| 61 | `[H][C@@]12CN(Cc3cccnc3)C[C@]1([H])CN(C(=O)Cc1cccc(F)c1)C2` | - | - | 1.911% | - | - |

For reference, 7 entries once more:

{"structure": "Cc1cnc(CN(C)C2CCN(Cc3sc(C)nc3C)C2)o1", "stereo": "configuration not stated", "MtTrpRS": -2.81, "ClpP1P2": -1.522, "Leishmania in macrophages": "3.059 and -11.05", "PfKRS1": -4.676, "CoaBC": 1.018}
{"structure": "CC1=C(C(=O)NCCc2n[nH]c3c2CCCC3)C(C)NC(=O)N1", "stereo": "configuration not stated", "MtTrpRS": 5.677, "ClpP1P2": 23.62, "Leishmania in macrophages": -14.94, "PfKRS1": -2.276, "CoaBC": -4.377}
{"structure": "CCN(CC)[C@H]1COC[C@@H]2CN(Cc3cnn(C)c3)C[C@@H]21", "MtTrpRS": -2.344, "ClpP1P2": 7.738, "PfKRS1": -3.012, "CoaBC": 4.684}
{"structure": "Cc1noc(C)c1-c1cccc(CC2CCN(C(=O)CN)C2)n1", "stereo": "configuration not stated", "ClpP1P2": -5.717, "Leishmania in macrophages": "-26.82 and 13.1", "PfKRS1": 5.214, "CoaBC": 3.632}
{"structure": "CC(C)S(=O)(=O)NCC(Cc1cccc(F)c1)N1CCNC1=O", "stereo": "configuration not stated", "MtTrpRS": 4.379, "ClpP1P2": -7.203, "Leishmania in macrophages": "-1.798 and 17.33", "PfKRS1": 2.85, "CoaBC": 3.053}
{"structure": "O=C(O)C(F)(F)F.[H][C@@]12COC[C@]1(COc1cccnc1)CN(C(=O)COC1CCCC1)C2", "Leishmania in macrophages": 38.34}
{"structure": "COc1ccccc1OCCNC(=O)CN1CCc2cncnc2C1", "MtTrpRS": -1.237, "ClpP1P2": -10.05, "Leishmania in macrophages": 8.64, "PfKRS1": -0.1058, "CoaBC": -13.95}

From ChEMBL document CHEMBL3988442, “University of Dundee, Small-Polar-MMV Screening Library” (2021).